# Data from PMC8384837.
# Where a chain is given by its changes, count along the chain named. Some of the results follow. For some assays here: At the low end of the ranking the order means little.
# How the values were obtained:
# Settings in all cases: yeast three-hybrid, YBZ-1, SC-Leu-His + 0.5 mM 3-AT, 4 days
# [1] = target: T1, PUM1 PUF domain R3-RSQ C935R + R936S (UniProt Q14671)
# T1 sequence: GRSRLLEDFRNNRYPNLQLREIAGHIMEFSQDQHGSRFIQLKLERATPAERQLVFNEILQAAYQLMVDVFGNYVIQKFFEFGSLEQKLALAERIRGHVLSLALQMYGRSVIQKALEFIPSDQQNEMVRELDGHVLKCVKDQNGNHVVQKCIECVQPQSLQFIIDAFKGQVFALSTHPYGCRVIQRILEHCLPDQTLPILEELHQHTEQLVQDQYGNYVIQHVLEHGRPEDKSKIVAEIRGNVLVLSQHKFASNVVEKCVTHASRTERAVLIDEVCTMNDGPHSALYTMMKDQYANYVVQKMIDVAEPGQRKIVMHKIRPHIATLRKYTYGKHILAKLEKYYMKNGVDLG
# [2] = target: T2, PUM1 PUF domain R3-RSS C935R + R936S + Q939S (Homo sapiens) (UniProt Q14671)
# T2 sequence: T1 sequence with Q112S
# [3] = target: T3, PUM1 PUF domain R3-RST C935R + R936S + Q939T (Homo sapiens) (UniProt Q14671)
# T3 sequence: T1 sequence with Q112T
# [4] = target: T4, PUM1 PUF domain R3-RSV C935R + R936S + Q939V (UniProt Q14671)
# T4 sequence: T1 sequence with Q112V
# [5] = target: T5, PUM1 PUF domain R3-RSW C935R + R936S + Q939W (UniProt Q14671)
# T5 sequence: T1 sequence with Q112W
# [6] = target: T6, PUM1 PUF domain R3-RTC C935R + R936T + Q939C (UniProt Q14671)
# T6 sequence: T1 sequence with S109T, Q112C
# [7] = target: T7, PUM1 PUF domain R3-RTF C935R + R936T + Q939F (UniProt Q14671)
# T7 sequence: T1 sequence with S109T, Q112F
# [8] = target: T8, PUM1 PUF domain R3-RTG C935R + R936T + Q939G (UniProt Q14671)
# T8 sequence: T1 sequence with S109T, Q112G
# [9] = target: T9, PUM1 PUF domain R3-RTI C935R + R936T + Q939I (UniProt Q14671)
# T9 sequence: T1 sequence with S109T, Q112I
# [10] = target: T10, PUM1 PUF domain R3-RTS C935R + R936T + Q939S (UniProt Q14671)
# T10 sequence: T1 sequence with S109T, Q112S
# [11] = target: T11, PUM1 PUF domain R3-RTV C935R + R936T + Q939V (UniProt Q14671)
# T11 sequence: T1 sequence with S109T, Q112V
# [12] = target: T12, PUM1 PUF domain R3-RTW C935R + R936T + Q939W (UniProt Q14671)
# T12 sequence: T1 sequence with S109T, Q112W
# [13] = target: T13, PUM1 PUF domain R3-RVA C935R + R936V + Q939A (UniProt Q14671)
# T13 sequence: T1 sequence with S109V, Q112A
# [14] = target: T14, PUM1 PUF domain R3-RVN C935R + R936V + Q939N (UniProt Q14671)
# T14 sequence: T1 sequence with S109V, Q112N
# [15] = target: T15, PUM1 PUF domain R3-RVR C935R + R936V + Q939R (Homo sapiens) (UniProt Q14671)
# T15 sequence: T1 sequence with S109V, Q112R
# [16] = target: T16, PUM1 PUF domain R3-RVS C935R + R936V + Q939S (UniProt Q14671)
# T16 sequence: T1 sequence with S109V, Q112S
# [17] = target: T17, PUM1 PUF domain R3-RVT C935R + R936V + Q939T (UniProt Q14671)
# T17 sequence: T1 sequence with S109V, Q112T
# [18] = target: T18, PUM1 PUF domain R3-SCR C935S + R936C + Q939R (Homo sapiens) (UniProt Q14671)
# T18 sequence: T1 sequence with R108S, S109C, Q112R
# [19] = target: T19, PUM1 PUF domain R3-SEE C935S + R936E + Q939E (UniProt Q14671)
# T19 sequence: T1 sequence with R108S, S109E, Q112E
# [20] = target: T20, PUM1 PUF domain R3-SIR C935S + R936I + Q939R (UniProt Q14671)
# T20 sequence: T1 sequence with R108S, S109I, Q112R
sequence,measurement,setting,value
GGCUAGAACUAGUGGAUCCCCCGGCGCCCGGCGGCUCGAGCCCGGGUAAGUGUAAAUAGUCUGCAUGCCGCCGGGCGCCAUGCCUGCAGGUCGACUCUAGAAAACAUG,binding signal (log2 enrichment (interaction score)),[1],< -6.63
same,binding signal (log2 enrichment (interaction score)),[2],-1.31
same,binding signal (log2 enrichment (interaction score)),[3],-1.76
same,binding signal (log2 enrichment (interaction score)),[4],-2
same,binding signal (log2 enrichment (interaction score)),[5],< -9.22
same,binding signal (log2 enrichment (interaction score)),[6],-4.5
same,binding signal (log2 enrichment (interaction score)),[7],< -7.22
same,binding signal (log2 enrichment (interaction score)),[8],-5.33
same,binding signal (log2 enrichment (interaction score)),[9],-2.87
same,binding signal (log2 enrichment (interaction score)),[10],-2.35
same,binding signal (log2 enrichment (interaction score)),[11],-4.4
same,binding signal (log2 enrichment (interaction score)),[12],< -8.22
same,binding signal (log2 enrichment (interaction score)),[13],-4.76
same,binding signal (log2 enrichment (interaction score)),[14],< -6.43
same,binding signal (log2 enrichment (interaction score)),[15],-1.77
same,binding signal (log2 enrichment (interaction score)),[16],-4.63
same,binding signal (log2 enrichment (interaction score)),[17],-5.34
same,binding signal (log2 enrichment (interaction score)),[18],-0.51
same,binding signal (log2 enrichment (interaction score)),[19],< -8.17
same,binding signal (log2 enrichment (interaction score)),[20],< -8.19

# 2 entries from above in another layout:
sequence	measurement	setting	value
GGCUAGAACUAGUGGAUCCCCCGGCGCCCGGCGGCUCGAGCCCGGGUAAGUGUAAAUAGUCUGCAUGCCGCCGGGCGCCAUGCCUGCAGGUCGACUCUAGAAAACAUG	binding signal (log2 enrichment (interaction score))	[10]	-2.35
same	binding signal (log2 enrichment (interaction score))	[11]	-4.4
